In patent EP2392597B1:
Substitutions are numbered along the chain they refer to. These are yes or no findings as the source states them, for the method shown. Some binding calls cover weakened binding; strength is not graded here.

Amino acid sequences for entries named in this document (tags omitted). A change or cut given only in a name is not applied to a line headed by its entry.
UniProt Q9NPF7: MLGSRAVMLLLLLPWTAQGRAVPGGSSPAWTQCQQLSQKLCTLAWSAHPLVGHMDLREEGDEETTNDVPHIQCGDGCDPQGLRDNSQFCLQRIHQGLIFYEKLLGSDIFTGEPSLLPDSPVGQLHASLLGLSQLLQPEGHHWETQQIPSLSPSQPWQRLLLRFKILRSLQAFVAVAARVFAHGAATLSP

B1: anti-IL-23p19 Fab/scFv cluster 150 (Fab, V domains shown)
VH: EVQLLESGGGLVQPGGSLRLSCAASGFTFSWYGMRWVRQAPGKGLEWVSSISSSGGKTRYADSVKGRFTISRDNSKNTLYLQMNSLRAEDTAVYYCARVDQWLRSNDYWGQGTLVTVSS
VL: DIQMTQSPLSLPVTPGEPASISCRSSQSLLQNNGYNYLDWYLQKPGQSPQLLIFLGSNRASGVPDRFSGSGSGTDFTLRISKVEAEDVGVYYCMQALHAPTFGQGTRLEIR
B2: anti-IL-23p19 Fab/scFv cluster 152 (Fab, V domains shown)
VH: EVQLLESGGGLVQPGGSLRLSCAASGFTFSAYWMSWVRQAPGKGLEWVSGIGPSGYTSYADSVKGRFTISRDNSKNTLYLQMNSLRAEDTAVYYCARLQVDFWSGYYFDQWGQGTLVTVSS
VL: DIQMTQSPSSLSASVGDRVAITCRASQSIDTYLNWYQQKPGKAPKLLIYAASKLEDGVPSRFSGSGTGTDFTLTIRSLQPEDFASYFCQQSYSSPGITFGPGTKVEIK
B3: anti-IL-23p19 Fab/scFv cluster 143 (Fab, V domains shown)
VH: EVQLLESGGGLVQPGGSLRLSCAASGFTFSGYAMGWVRQAPGKGLEWVSYIGPSGGWTRYADSVKGRFTISRDNSKNTLYLQMNSLRAEDTAVYYCARHWVSDPFDYWGQGTLVTVSS
VL: DIQMTQSPSSLSASVGDRVTITCRASQGISNYLAWYQQRPGKAPKLLIYAASSLQSGVPSRFSGSGSGTDFTLTISSLQPGDFATYYCQQSYSIPYTFGQGTKLEIK
B4: anti-IL-23p19 Fab/scFv cluster 146 (Fab, V domains shown)
VH: EVQLLESGGGLVQPGGSLRLSCAASGFTFSMYRMMWVRQAPGKGLEWVSSIRPSGGMTMYADSVKGRFTISRDNSKNTLYLQMNSLRAEDTAVYYCTRGWALFGVVRMGDYWGQGTLVTVSS
VL: QSELTQPASVSGSPGQSITISCSGTSSDVGGHNFVSWYQERPGKVPKLIIYDVNNRPSGISSRFSGSKSGNTASLTISGLQAEDEADYFCNSYTITGTYVFGTGTKVTVL
B5: anti-IL-23p19 Fab/scFv cluster 148 (Fab, V domains shown)
VH: EVQLLESGGGLVQPGGSLRLSCAASGFTFSNYSMSWVRQAPGKGLEWVSSIRSSGGRTDYADSVKGRFTISRDNSKNTLYLQMNSLRAEDTAVYYCATGIAVARYWGQGTLVTVSS
VL: DIQMTQSPGTLSLSPGERATLSCRASQSVSSYLAWYQQKPGQAPRLLIYGASNRATGIPARFSGSGSGTDFTLTISSLEPEDFAVYFCQQYASPPRTFGQGTKLEMK
B6: anti-IL-23p19 Fab/scFv cluster 160 (Fab, V domains shown)
VH: B5 VH
VL: DIQMTQSPSTLSASVGDRVTITCRASQNIGTWVVWYQQRPGKAPSLLIYKASTLESGVPSRFSGSGSGTEFTLTISSLQPDDFATYYCQQFYTSKTFGQGTKVEIK
B7: anti-IL-23p19 Fab/scFv cluster 149 (Fab, V domains shown)
VH: B5 VH
VL: DIQMTQSPGTLSVFPGERATLSCRASQNIGINLAWYQQKPGQTPRLLIYGASSRATGIPARFSGSGSGTEFALTISSMQSEDFAVYFCQQYHRWPPLTFGGGTKVEIK
B8: anti-IL-23p19 Fab/scFv cluster 162 (Fab, V domains shown)
VH: B5 VH
VL: DIQMTQSPGTLSLSPGERATVSCRASQSVSSSYLAWYQQKPGLAPRLLIYDASNRATGIPDRFSGSGSGTDFTLTITRLEPEDFAVYYCQQYSTSPFTFGPGTKVDIK
B9: anti-IL-23p19 Fab/scFv cluster 157 (Fab, V domains shown)
VH: EVQLLESGGGLVQPGGSLRLSCAASGFTFSPYAMYWVRQAPGKGLEWVSYISPSGGITQYADSVKGRFTISRDNSKNTLYLQMNSLRAEDTAVYYCARGDFDWLLHHPNAFDIWGQGTMVTVSS
VL: QSELTQPPSASGTPGQRVTISCSGTLSNIGTNIVSWFQQLPGTAPKLLIYNDHRRPSGVPDRFSGSKSATSASLAISGLQSEDEADYYCAAWDDSLNGVVFGGGTKLTVL
B10: anti-IL-23p19 Fab/scFv cluster 163 (Fab, V domains shown)
VH: EVQLLESGGGLVQPGGSLRLSCAASGFTFSKYNMFWVRQAPGKGLEWVSVIGSSGGTTGYADSVKGRFTISRDNSKNTLYLQMNSLRAEDTATYYCAREKGIAAAYDYWGQGTLVTVSS
VL: DIQMTQSPGTLSLSPGERATLSCRASQSVSSNYLAWYQQKPGQAPRLLMYGASTRATGVPDRFSGSGSGTEFTLTINSLQSEDFAVYYCQQYNYWPRTFGTGTKVEIK
B11: anti-IL-23p19 Fab/scFv cluster 139 (Fab, V domains shown)
VH: EVQLLESGGGLVQPGGSLRLSCAASGFTFSKYDMDWVRQAPGKGLEWVSSISSSGGLTFYADSVKGRFTISRDNSKNTLYLQMNSLRAEDTAVYYCARHDYDFWSGHAFDIWGQGTMVTVSS
VL: DIQMTQSPSSLSASVGDRVTITCRASQGISNYLAWYQQKPGKVPKLLIYGASTVQSGVPSRFSGSGSGTDFTLTISSLQPEDVATYYCQKYNRVPWTFGQGTKVEIK
B12: anti-IL-23p19 Fab/scFv cluster 158 (Fab, V domains shown)
VH: EVQLLESGGGLVQPGGSLRLSCAASGFTFSDYPMQWVRQAPGKGLEWVSSIWSSGGITLYADSVKGRFTISRDNSKNTLYLQMNSLRAEDTAVYYCARGTHGGGPPWYYYMDVWGKGTTVTVSS
VL: DIQMTQSPLSLPVTPGEPASISCRSSQSLLHTHGYNYLDWFLQKPGQSPQLLIYMGSNRASGVPDRFSGSGSGTDFTLKISRVEAEDVGVYYCMQARQTPYTFGQGTKLEIK
B13: anti-IL-23p19 Fab/scFv cluster 161 (Fab, V domains shown)
VH: EVQLLESGGGLVQPGGSLRLSCAASGFTFSWYMMHWVRQAPGKGLEWVSSIGSSGGFTTYADSVKGRFTISRDNSKNTLYLQMNSLRAEDTAVYYCATGAMGSAFDIWGQGTMVTVSS
VL: B12 VL with H31Q, T32S, H33N, F41Y, M55L, K79I, E86D, A96G, R97L, Y101H
B14: anti-IL-23p19 Fab/scFv cluster 151 (Fab, V domains shown)
VH: EVQLLESGGGLVQPGGSLRLSCAASGFTFSKYFMNWVRQAPGKGLEWVSSISSSGGATTYADSVKGRFTISRDNSKNTLYLQMNSLRAEDTAVYYCAKVGYTNWSIDNWGQGTLVTVSS
VL: DIQMTQSPATLSLSPGERATLSCRASQSVSNYLAWYQQKPGQSPRLLIYYASTRATGIPDRFSGSGSGTDFTLTIRRLEPEDFAVYYCQQYATSPWTFGQGTKVEIK
B15: anti-IL-23p19 Fab/scFv cluster 153 (Fab, V domains shown)
VH: EVQLLESGGGLVQPGGSLRLSCAASGFTFSAYRMYWVRQAPGKGLEWVSGISPSGGKTTYADSVKGRFTISRDNSKNTLYLQMNSLRAEDTAVYYCARGRGDILTAYFDYWGQGTLVTVSS
VL: DIQMTQSPSTLSASVGDTVTITCRASQSISNWVAWYQQKPGKAPKVLIYKASLLESGVPSRFSGSQSGADFTLTISSLQPEDFAVYYCQQSGTSPFTFGPGTKVDLK
B16: anti-IL-23p19 Fab/scFv cluster 144 (Fab, V domains shown)
VH: EVQLLESGGGLVQPGGSLRLSCAASGFTFSLYNMTWVRQAPGKGLEWVSSIGPSGGDTKYADSVKGRFTISRDNSKNTLYLQMNSLRAEDTAVYYCARVMGYYYYYYGMDVWGQGTTVTVSS
VL: DIQMTQSPLSLPVTPGEPASISCRSSQSLLDSNGYNHLDWYVQKPGQSPQLLIYLGSNRASGVPDRFSGSGSGTHFTLKISTVEAEDVGVYYCMQSLHTPQAFGQGTKVEIK
B17: anti-IL-23p19 Fab/scFv cluster 140 (Fab, V domains shown)
VH: EVQLLESGGGLVQPGGSLRLSCAASGFTFSKYGMNWVRQAPGKGLEWVSGIVSSGGQTPYADSVKGRFTISRDNSKNTLYLQMNSLRAEDTAVYYCARGVRGYGDYWYFDLWGRGTLVTVSS
VL: DIQMTQSPLSLPVTPGEPASISCRSSQSLLHRNGYNYLDWYVQRPGQSPQLLIYLGSNRASGVPDRFSGSGSGTDFTLRISRVEAEDVGVYYCMEALQTPPTFGGGTKVEIK
B18: anti-IL-23p19 Fab/scFv cluster 138 (Fab, V domains shown)
VH: EVQLLESGGGLVQPGGSLRLSCAASGFTFSQYGMRWVRQAPGKGLEWVSSIGPSGGFTRYADSVKGRFTISRDNSKNTFYLQMNSLRAEDTAVYYCARSGSTWYFDLWGRGTLVTVSS
VL: DIVMTQTPPSLPVNPGEPASISCRSSQSLQHSNGYNYVAWYLQKPGQSPQLLIYLGSNRASGVPDRFSGSGSGTDFKLKISRVEAEDVGDYFCMQLLETPLTFGGGTKVEIK
B19: anti-IL-23p19 Fab/scFv cluster 156 (Fab, V domains shown)
VH: EVQLLESGGGLVQPGGSLRLSCAASGFTFSNYGMSWVRQAPGKGLEWVSRIWPSGGYTKYADSVKGRFTISRDNSKNTLYLQMNSLRAEDTAVYYCARGKGSGSFPLDYWGQGTLVTVSS
VL: QYELTQPPSASGTPGQRVTISCSGSSSNIGSNFVTWYQQLPGTAPKLLSYTNNQRPSGVPDRFSASKSGTSASLAISGLQSEDEADYYCAAWDDNLNCPVFGGGTKLTVL
B20: anti-IL-23p19 Fab/scFv cluster 159 (Fab, V domains shown)
VH: EVQLLESGGGLVQPGGSLRLSCAASGFTFSNYSMSWVRQAPGKGLEWVSYIYSSGGPTQYADSVKGRFTISRDNSKNTLYLQMNSLRAEDMAVYYCARGGGYSYGFPLPFDYWGQGTLVTVSS
VL: DIQMTQSPLSLSVTPGEPASISCMSSQSLLYSNGYNYLDWYLQKPGQSPQLLIYLGANRASGVPDRFSGGGSGTDFRLKISRVEAEDVGVYYCVQTLQTPYTFGQGTKLEIK
B21: anti-IL-23p19 Fab/scFv cluster 145 (Fab, V domains shown)
VH: EVQLLESGGGLVQPGGSLRLSCAASGFTFSYYWMDWVRQAPGKGLEWVSRIYPSGGMTWYADSVKGRFTISRDNSKNTLYLQMNSLRAEDTAVYYCARGRLNGYFDLWGRGTLVTVSS
VL: DIQMTQSPVTLSVSPGERATLSCRSSQPILNNLAWYQHKPGQAPRLLIYGASTRATGIPARFSGSGSGTDFTLTISSLQSEDFAVYYCQQYNNWITFGQGTRLDIK
B22: anti-IL-23p19 Fab/scFv cluster 164 (Fab, V domains shown)
VH: EVQLLESGGGLVQPGGSLRLSCAASGFTFSLYKMMWVRQAPGKGLEWVSSIYSSGGRTNYADSVKGRFTISRDNSKNTLYLQMNSLRAEDTAVYYCATDVTWWPRSYWGQGTLVTVSS
VL: DIQMTQSPGTLSLSPGERATLSCWASQSVKSNYLAWYQQKPGQAPRLLIYGASSRATGIPDRFSGSGSGTDFTLTISRLEPEDFAVYYCQQYGSSPRTFGQGTKVEIK

The binders below were run against human p19 subunit of IL-23 (human) (UniProt Q9NPF7) (assay: phage display screening).

| binding | Binder |
| --- | --- |
| binds | B1 |
| binds | B2 |
| binds | B3 |
| binds | B4 |
| binds | B5 |
| binds | B6 |
| binds | B7 |
| binds | B8 |
| binds | B9 |
| binds | B10 |
| binds | B11 |
| binds | B12 |
| binds | B13 |
| binds | B14 |
| binds | B15 |
| binds | B16 |
| binds | B17 |
| binds | B18 |
| binds | B19 |
| binds | B20 |
| binds | B21 |
| binds | B22 |
